Results: article PMC11873123
No constants are given. Whether binding was seen depends on the method and setting. Binding seen in cells or lysates may run through a third protein. Some binding calls cover weakened binding; strength is not graded here. For some of these results: Sequences can lack the tags named with a protein.

T1: FLAG-FBXL4 (UniProt Q9UKA2)
T1 sequence: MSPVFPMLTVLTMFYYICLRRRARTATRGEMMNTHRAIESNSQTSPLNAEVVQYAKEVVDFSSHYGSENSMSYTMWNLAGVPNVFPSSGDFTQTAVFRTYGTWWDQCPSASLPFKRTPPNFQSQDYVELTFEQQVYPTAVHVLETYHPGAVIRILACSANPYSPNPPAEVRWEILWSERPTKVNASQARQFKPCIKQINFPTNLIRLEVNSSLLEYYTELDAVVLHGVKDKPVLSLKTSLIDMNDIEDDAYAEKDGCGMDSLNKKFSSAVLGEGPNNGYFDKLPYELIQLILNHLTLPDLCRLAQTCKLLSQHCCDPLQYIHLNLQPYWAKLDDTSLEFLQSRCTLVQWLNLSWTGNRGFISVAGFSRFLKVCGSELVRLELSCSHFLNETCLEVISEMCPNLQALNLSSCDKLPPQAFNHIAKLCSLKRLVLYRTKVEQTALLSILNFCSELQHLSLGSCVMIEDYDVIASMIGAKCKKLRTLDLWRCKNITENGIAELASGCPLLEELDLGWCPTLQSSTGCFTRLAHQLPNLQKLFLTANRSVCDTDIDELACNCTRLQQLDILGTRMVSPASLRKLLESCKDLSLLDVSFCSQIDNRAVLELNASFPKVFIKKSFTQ

T2: PPTC7, ectopically overexpressed (Fig. 1C, D) (UniProt Q8NI37)
T2 sequence: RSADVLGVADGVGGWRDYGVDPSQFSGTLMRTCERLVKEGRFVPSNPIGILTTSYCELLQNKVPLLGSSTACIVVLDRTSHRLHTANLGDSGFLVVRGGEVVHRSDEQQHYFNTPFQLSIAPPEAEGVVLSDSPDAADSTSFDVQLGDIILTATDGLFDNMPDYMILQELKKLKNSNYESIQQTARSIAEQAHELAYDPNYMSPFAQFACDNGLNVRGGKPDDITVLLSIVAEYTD

T3: PPTC7-WT-FLAG (UniProt Q8NI37)
T3 sequence: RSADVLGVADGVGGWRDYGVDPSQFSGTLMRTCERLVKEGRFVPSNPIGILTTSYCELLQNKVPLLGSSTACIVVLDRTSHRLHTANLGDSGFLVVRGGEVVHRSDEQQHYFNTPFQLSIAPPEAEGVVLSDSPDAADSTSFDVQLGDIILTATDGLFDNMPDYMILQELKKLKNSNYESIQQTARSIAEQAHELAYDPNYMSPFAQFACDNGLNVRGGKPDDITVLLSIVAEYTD


Legend:
FLAG-FBXL4 = target: T1, FLAG-FBXL4; experiment: co-IP; anti-FLAG antibody, 293T cells transfected with a FLAG-tagged bait; endogenous partners detected by Western blot (Fig. 1E, F, 2K)
[1] = target: T2, PPTC7, ectopically overexpressed (Fig. 1C, D); experiment: co-IP; anti-FLAG antibody, 293T cells transfected with indicated plasmids, exogenous partners; Western blot (Fig. 1C, D)
PPTC7-WT-FLAG = target: T3, PPTC7-WT-FLAG; experiment: co-IP; anti-FLAG antibody, 293T cells transfected with a FLAG-tagged bait; endogenous partners detected by Western blot (Fig. 1E, F, 2K)

Row | binding [1] | Binder | other results
1 |  | PPTC7, endogenous (protein, UniProt Q8NI37 69-304) RSADVLGVADGVGGWRDYGVDPSQFSGTLMRTCERLVKEGRFVPSNPIGILTTSYCELLQNKVPLLGSSTACIVVLDRTSHRLHTANLGDSGFLVVRGGEVVHRSDEQQHYFNTPFQLSIAPPEAEGVVLSDSPDAADSTSFDVQLGDIILTATDGLFDNMPDYMILQELKKLKNSNYESIQQTARSIAEQAHELAYDPNYMSPFAQFACDNGLNVRGGKPDDITVLLSIVAEYTD | binding (FLAG-FBXL4): binds
2 | binds | FBXL4, exogenous (Fig. 1D) (protein, UniProt Q9UKA2 1-621) MSPVFPMLTVLTMFYYICLRRRARTATRGEMMNTHRAIESNSQTSPLNAEVVQYAKEVVDFSSHYGSENSMSYTMWNLAGVPNVFPSSGDFTQTAVFRTYGTWWDQCPSASLPFKRTPPNFQSQDYVELTFEQQVYPTAVHVLETYHPGAVIRILACSANPYSPNPPAEVRWEILWSERPTKVNASQARQFKPCIKQINFPTNLIRLEVNSSLLEYYTELDAVVLHGVKDKPVLSLKTSLIDMNDIEDDAYAEKDGCGMDSLNKKFSSAVLGEGPNNGYFDKLPYELIQLILNHLTLPDLCRLAQTCKLLSQHCCDPLQYIHLNLQPYWAKLDDTSLEFLQSRCTLVQWLNLSWTGNRGFISVAGFSRFLKVCGSELVRLELSCSHFLNETCLEVISEMCPNLQALNLSSCDKLPPQAFNHIAKLCSLKRLVLYRTKVEQTALLSILNFCSELQHLSLGSCVMIEDYDVIASMIGAKCKKLRTLDLWRCKNITENGIAELASGCPLLEELDLGWCPTLQSSTGCFTRLAHQLPNLQKLFLTANRSVCDTDIDELACNCTRLQQLDILGTRMVSPASLRKLLESCKDLSLLDVSFCSQIDNRAVLELNASFPKVFIKKSFTQ | 
3 |  | FBXL4, endogenous (protein, UniProt Q9UKA2 1-621) MSPVFPMLTVLTMFYYICLRRRARTATRGEMMNTHRAIESNSQTSPLNAEVVQYAKEVVDFSSHYGSENSMSYTMWNLAGVPNVFPSSGDFTQTAVFRTYGTWWDQCPSASLPFKRTPPNFQSQDYVELTFEQQVYPTAVHVLETYHPGAVIRILACSANPYSPNPPAEVRWEILWSERPTKVNASQARQFKPCIKQINFPTNLIRLEVNSSLLEYYTELDAVVLHGVKDKPVLSLKTSLIDMNDIEDDAYAEKDGCGMDSLNKKFSSAVLGEGPNNGYFDKLPYELIQLILNHLTLPDLCRLAQTCKLLSQHCCDPLQYIHLNLQPYWAKLDDTSLEFLQSRCTLVQWLNLSWTGNRGFISVAGFSRFLKVCGSELVRLELSCSHFLNETCLEVISEMCPNLQALNLSSCDKLPPQAFNHIAKLCSLKRLVLYRTKVEQTALLSILNFCSELQHLSLGSCVMIEDYDVIASMIGAKCKKLRTLDLWRCKNITENGIAELASGCPLLEELDLGWCPTLQSSTGCFTRLAHQLPNLQKLFLTANRSVCDTDIDELACNCTRLQQLDILGTRMVSPASLRKLLESCKDLSLLDVSFCSQIDNRAVLELNASFPKVFIKKSFTQ | binding (PPTC7-WT-FLAG): binds
4 | no binding | NIPSNAP1 (protein, UniProt Q9BPW8 36-284) SKDNEGSWFRSLFVHKVDPRKDAHSTLLSKKETSNLYKIQFHNVKPEYLDAYNSLTEAVLPKLHLDEDYPCSLVGNWNTWYGEQDQAVHLWRFSGGYPALMDCMNKLKNNKEYLEFRRERSQMLLSRRNQLLLEFSFWNEPQPRMGPNIYELRTYKLKPGTMIEWGNNWARAIKYRQENQEAVGGFFSQIGELYVVHHLWAYKDLQSREETRNAAWRKRGWDENVYYTVPLVRHMESRIMIPLKISPLQ | 
